Experimental data taken from publication PMC10163288.
The list shows a part of the results.

B1: il2ra_site1_3nfp_sap_19_mot_HHH_b1_07797_af2_000000242_0001_43_57_H_._HHH_b1_05810_af2_0001_0000100011_0000001_0_0001_af2pred_0001_af2pred_1 (protein)
chain: SVEERAEELLEEGNPEEAVKLLLEALKQLGSEAAELLAKRLEELLERGLIPPERVVKRLLRDLKA
B2: il2ra_site1_3nfp_sap_29_mot_HHH_b1_06312_000000077_0001_1_18_H_._HHH_b1_03598_af2_0001_0000100003_0000001_1_0001_af2pred_0001_af2pred_swapped (protein)
chain: DLAEKALKDLIKALKSLGNPELQELAEEIEELRKRNKEEALELALEVARRLGSKVAARLLELLLK
B3: il2ra_site2_2erj_normal_mot_HHH_b1_03752_000000035_0001_21_37_H_._HHH_b1_04771_0001_0000300009_0000001_0 (protein)
chain: SSSSDEEAERLFEELEKLVEEGDQEEVARLLKLLLELSEKLGDPTVVKLAWRALELARLISSSSS
B4: il2ra_site2_3nfp_sap_15_mot_HHH_b1_04032_000000208_0001_43_56_H_._HHH_b1_06394_0001_0000300008_0000001_0_0001_af2pred_0001_1_af2pred_swapped (protein)
chain: SSSSSDEEEEEVERLVEEAKRIEDEEEAERLLLKAATIAAEANDHELFALVTEVMAKLLSSSSSS
B5: il2ra_site1_1z92_sap_15_mot_HHH_b2_03461_af2_000000290_0001_43_55_H_._HHH_b1_08688_0001_0000200013_0000001_0_0001_af2pred_0001_af2pred (protein)
chain: SSSSSSDELERVERLFHEAMRIKDPEEAREVLEEALELAEELGDETARRDIEHILRLLSSSSSSS
B6: il2ra_site2_3nfp_sap_10_mot_HHH_b1_00159_af2_000000185_0001_1_18_H_._HHH_b1_04724_0001_0000900032_0000001_0_0001_af2pred_0001_af2pred (protein)
chain: SSSSSDREVEEEVEELLEEAKRIEDPEEREEVLREAALAAAEAGNQELFMAVVNVIEKLLSSSSS
B7: il2ra_site1_3nfp_sap_18_mot_ems_3hM_2054_af2_000000130_0001_3_20_H_._HHH_b2_07863_0001_0000600021_0000001_0_0001 (protein)
chain: SRILERFVKIARKRGNPEFARVVEILLEVLEQDPRLKRAIDKILFELVSGKLPPEEAEELAKELK
B8: il2ra_site1_3nfp_normal_mot_HHH_b1_00274_000000174_0001_20_36_H_._9f3c0f417c9aa984f1ddc61782894328_0001_0001_0000100010_0000001_0 (protein)
chain: KIEEFLARAVAKAPDPERAARHVIRLLRRAAPDPEIVKEIVERIIELLEELGNPEAAEILRELLK
B9: il2ra_site2_3nfp_sap_10_mot_HHH_b2_00281_af2_000000209_0001_1_18_H_._HHH_b2_08075_af2_0001_0000600013_0000001_0_0001 (protein)
chain: SSSSDEEVEELLKEVEELIKRGNYEEAEKLLQEASHIAWEEGDSELFFRIAELAYEVFRGSSSSS
B10: il2ra_site1_3nfp_sap_13_mot_HHH_b2_06502_000000119_0001_42_55_H_._HHH_b2_07191_af2_0001_0000400036_0000001_0_0001_af2pred_0001_af2pred (protein)
chain: GPEVERRAVRIALEQNSPRLLKKILEDAERFTGDPEEAERWLSELIAEVLKVPPEEAQEIVEEVK
B11: il2ra_site2_3nfp_sap_21_mot_HHH_b2_05281_000000198_0001_39_56_H_._HHH_b1_03483_0001_0000300023_0000001_1_0001 (protein)
chain: SSSSSDELERLAEQALEAAKTVEDPERARLALRLARAHALLNNNEELLEEIEELEKEINSSSSSS
B12: il2ra_site1_1z92_normal_mot_6c2800a769814540b5b47941e710ff28_0001_af2_000000005_0001_35_49_H_._1b31007bc61eb1e0f5007adad2b85f91_0001_1_af2_0001_0000500014_00000 … (protein)
chain: DEELEQLVEEARKYLPPELQRFLEELLELLKKRGDPSFEFLIRQIVKKAKIDPEAARKIVEKMRR
B13: il2ra_site2_3nfp_sap_18_mot_HHH_b1_04032_000000208_0001_43_56_H_._HHH_b1_07268_af2_0001_0000900014_0000001_0_0001 (protein)
chain: SSSSSDEEVEKLLEEAEELLKNGNPEEARRVLLRAFLLAAEERDHELFARLVELFEKIERSSSSS
B14: il2ra_site2_2erj_sap_17_mot_HHH_b2_04919_000000145_0001_20_36_H_._HHH_b1_03436_af2_0001_0000300003_0000001_0_0001 (protein)
chain: SSSSDEDMEFLEELAKEAFENRDRSRLELLIAYLELSLEDTGDPKLEELLRLVQELLERLKSSSS
B15: il2ra_site1_1z92_sap_14_mot_07d2d8a42fb0c6931fb03626c2a0eeb8_0001_000000072_0001_36_50_H_._21a7f3f59e5862fd80bc1ac137a4a28b_0001_1_0001_0000200025_0000001_0_000 … (protein)
chain: SSSDLAEELEELLEEARELDPRARELLELLLRQVRMAEEHGDEKALETARKLIEAKLKTINSSSS
B16: il2ra_site2_3nfp_sap_25_mot_HHH_b2_07498_000000293_0001_1_14_H_._HHH_b1_01574_0001_0000100004_0000001_0_0001_af2pred_0001_1_af2pred_swapped (protein)
chain: SSSSSDEELLEEAKRLLEEGNLEEAFRVLAEAASEAIELGDEELAHEIAALAIEVAEKLGSSSSS
B17: il2ra_site2_2erj_sap_20_mot_493fd54309310d9249ba1f7ad6a52a72_0001_1_000000066_0001_37_51_H_._HHH_b2_08134_af2_0001_0000600016_0000001_0_0001 (protein)
chain: SSSDRELSRRLLEVIFRLLAELNLSIEQMEELFELLEELLRRGVSEEEAEELLREEAEELASSSS
B18: il2ra_site2_2erj_normal_mot_HHH_b2_05976_000000049_0001_1_19_H_._HHH_b2_01889_af2_0001_0000400014_0000001_0 (protein)
chain: SSSSSDQEEAWERVAKLLAELSHVSEEEFEKLLEEAEELAKEANSPALKRYVEYARRDHSSSSSS
B19: il2ra_site1_1z92_sap_14_mot_7cd355b931c3777444dbab6abe2c9f76_0001_000000112_0001_52_65_H_._HEEHE_0071_af2_0002_0000500018_0000001_0_0001_af2pred_0001_af2pred_1 (protein)
chain: SSSSSNDSEFLWEVIEEANKLFKEDPEEAKRLLEEAAERLEEQNNEAAVRQLERFLEAAKSSSSS
B20: il2ra_site1_2b5i_sap_14_mot_HHH_b2_04373_af2_000000166_0001_1_14_H_._HHH_b2_00804_0001_0000600071_0000001_0_0001_af2pred_dldesign_0_af2pred (protein)
chain: DLKAKLEAELAKTGNPYYTKLLKILEAGEAAGDERTEKYVEYLYRRLKKGNPKAVRAIESAAEVV
B21: il2ra_site1_2b5i_normal_mot_HHH_b1_08745_af2_000000166_0001_39_57_H_._HHH_b1_06268_0001_0000500025_0000001_0_af2pred_dldesign_0_af2pred (protein)
chain: SSSSSVGKRLRELLKEAERLRKEGKDEEAKELLEKALELAEEAKMNAFKKIVESALKNLESSSSS
B22: il2ra_site1_2b5i_sap_10_mot_HHH_b1_06833_000000178_0001_1_19_H_._HHH_b2_04591_0001_0000500023_0000001_0_0001_af2pred_dldesign_0_af2pred (protein)
chain: SSSSSDPGYRELVDALIEEARKIEDPLLRRRILTLARLTAKKGKDPELVAKVEAEEAALSSSSSS
B23: il2ra_site1_2b5i_normal_mot_2cbe48e66a1f39b3fed734b245ab0a04_0001_000000015_0001_17_31_H_._HHH_b1_01960_0001_0000800030_0000001_0_af2pred_dldesign_0_af2pred (protein)
chain: SSSSSDPAGRAEVERLIEEAKKLKDFAEASKKLYEALKLARKLGDEELIKKVEEVYKKFSSSSSS
B24: il2ra_site2_3nfp_normal_mot_HHH_b1_07095_000000265_0001_1_20_H_._HHH_b1_00955_0001_0000100022_0000001_0 (protein)
chain: SSSSSELEEEVRKLIEEARELLERGNPEEARRVLAKAADLAFQARNFELFALLNELMELVTSSSS

What follows are binders tested against il2ra, P01589 (assay: yeast display titration).

Apparent Kd, inactive:
B1 no binding seen, B2 no binding seen, B3 no binding seen, B4 no binding seen, B5 no binding seen, B6 no binding seen, B7 no binding seen, B8 no binding seen, B9 no binding seen, B10 > 1.04 µM, B11 no binding seen, B12 no binding seen, B13 no binding seen, B14 no binding seen, B15 no binding seen, B16 no binding seen, B17 no binding seen, B18 no binding seen, B19 no binding seen, B20 no binding seen, B21 no binding seen, B22 no binding seen, B23 no binding seen, B24 no binding seen
